Measurements from patent publication US5726024.

Chains of the proteins cited; added tags and fusions are not shown.
UniProt P02340, whole entry: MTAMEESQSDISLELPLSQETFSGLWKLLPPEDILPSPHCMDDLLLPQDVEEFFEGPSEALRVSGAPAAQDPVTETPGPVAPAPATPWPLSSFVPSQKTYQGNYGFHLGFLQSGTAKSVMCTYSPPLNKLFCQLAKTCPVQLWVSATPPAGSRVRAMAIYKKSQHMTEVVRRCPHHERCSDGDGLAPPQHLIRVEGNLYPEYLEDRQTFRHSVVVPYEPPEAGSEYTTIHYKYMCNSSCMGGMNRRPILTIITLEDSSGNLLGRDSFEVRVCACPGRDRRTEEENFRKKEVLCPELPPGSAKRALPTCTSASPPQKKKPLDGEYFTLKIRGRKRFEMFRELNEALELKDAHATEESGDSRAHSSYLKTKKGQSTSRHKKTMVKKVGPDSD

Target: p53 (wild type, major form) (Mus musculus) (UniProt P02340)
Experiment: EMSA
Settings: no apparent binding without activation; protein translated in vitro; protein details: rabbit reticulocyte lysate, plasmid pBSp53; label: 32P end label

AGGCATGCCTAGGCATGCCT (double strand) [p53 binding sequence (two 10-mer half sites)]
binding result: no binding

No signal at the amounts used counts as a negative.
